# Results deposited as PubChem BioAssay AID652259 (Drosophila RNAi Screening Center, 2013)
# Purpose: 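Knock-downs that push a Wingless-driven reporter up or down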 (primary screen)
# System: Drosophila clone 8 imaginal disc epithelial cells
# Reagents: long dsRNA against Drosophila genes
# Treatment: pathway stimulated by co-transfected Wingless expression plasmid
# Read-out: 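Firefly luciferase from a tcf-site Wingless reporter, measured alongside co-transfected Renilla luciferase that tracks transfection; pathway stimulated by a Wingless plasmid; the firefly-to-Renilla ratio is not deposited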
# Direction: firefly reporter light: higher = more Wg reporter light, before normalisation; Renilla control light: higher = more transfected or surviving cells
# Rule for the call: 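Strong candidates differ from their plate mean by at least two out of four per-plate statistical tests; weak candidates meet just one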
# Calls: active = candidate regulator (raises or lowers reporter); inactive = not a candidate
# The deposit covers about 22,000 reagents; below is a random part of those with a known target gene and a result. Over the whole deposit, 233 (1.1%) got an active call. 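Light values are raw, unnormalised plate reads; the ratio scores behind the reporter calls were not deposited.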 Unmarked entries are inactive. A plus sign joins genes that one reagent is predicted to hit. Not stated in the record: the amount of reagent, the time to read-out, the dose of the treatment.
target gene,dsRNA,"firefly reporter light, replicate 1","firefly reporter light, replicate 2","Renilla control light, replicate 1","Renilla control light, replicate 2"
GstE6,DRSC06676,7914,,2818,
CG31663,DRSC00078,26913,,13239,
CG31663,DRSC00389,14736,,6840,
CG31663,DRSC00390,5141,,1804,
CG31663,DRSC00393,3228,8994,1364,3512
Tsp97E,DRSC16019,2200,8404,1137,2311
CG10341,DRSC02040,5941,,2477,
RabGGTb,DRSC00804,11506,,4342,
CG12817,DRSC14555,15749,,4759,
NT5E-2,DRSC06893,16816,,3939,
Lsp1beta,DRSC00757,8976,,3539,
casp,DRSC07164,8870,,3787,
BCAS2,DRSC15693,3840,8624,1064,1877
Cdk7,DRSC18451,24736,,9803,
stet,DRSC08246,3571,,2355,
stet,DRSC08283,7789,,2534,
pre-mod(mdg4)-W + pre-mod(mdg4)-Y + mod(mdg4) + 3 more,DRSC16328,38200,,8793,
GILT2,DRSC14196,3298,8610,1408,2704
CG43101,DRSC05520,19405,,13965,
CG15255,DRSC01869,2614,5942,837,2747
CG30016,DRSC05242,14445,,9608,
CG31704,DRSC22118,4.65e5,4.31e5,1.72e5,2.13e5
CG6766,DRSC02991,2055,8005,1314,2657
CG31862,DRSC01245,20957,,12331,
CG31913,DRSC00892,14266,,6571,
CG30356,DRSC05119,27632,,12544,
Ndae1,DRSC00975,18711,,10544,
Ndae1,DRSC02770,10214,,4426,
Diap2,DRSC07444,7081,,2594,

An excerpt of the results above, as a working copy:
target gene,dsRNA,"firefly reporter light, replicate 1","firefly reporter light, replicate 2","Renilla control light, replicate 1","Renilla control light, replicate 2"
CG43101,DRSC05520,19405,,13965,
CG15255,DRSC01869,2614,5942,837,2747
CG30016,DRSC05242,14445,,9608,
CG31704,DRSC22118,4.65e5,4.31e5,1.72e5,2.13e5
CG6766,DRSC02991,2055,8005,1314,2657
